{
  "source": "paper PMC12431657",
  "about": "“Discovery and mechanistic insights of dibenzoylmethane as a broad spectrum inhibitor of coronavirus” (PLOS Pathogens, 2025)",
  "tested_on": "HCoV-OC43",
  "parameters": "species or system RD; HTS, protection from HCoV-OC43 induced cell death, luminescent cell viability (CellCounting-Lite 2.0), inhibition rate",
  "conditions": "24 h post infection, 1 h compound pre-incubation, 10 µM, inhibitor",
  "note": "Where two headings read alike, the source gives them in different places. About 60 (2%) of roughly 3,300 compounds showed an effect of 50% or more. The list shows a part of the results.",
  "data": [
    {"smiles": "CC(=O)CCC(=O)O", "note": "[Levulinic acid]", "values": [
      {"measurement": "OC43 Inhibition rate", "result": -0.2, "unit": "%"}
    ]},
    {"smiles": "COc1cc(O)c(CC=C(C)C)c2c1C(=O)CC(c1ccc(O)cc1)O2", "note": "(stereo not drawn) [Isoxanthohumol]", "values": [
      {"measurement": "OC43 Inhibition rate", "result": 30.2, "unit": "%"}
    ]},
    {"smiles": "C[C@@H]1O[C@@H](O[C@H]2[C@H](Oc3cc(O)c4c(=O)cc(-c5ccc(O)cc5)oc4c3)O[C@H](CO[C@@H]3O[C@H](CO)[C@@H](O)[C@H](O)[C@H]3O)[C@@H](O)[C@@H]2O)[C@H](O)[C@H](O)[C@H]1O", "note": "[Apigenin-7-O-(2G-rhamnosyl)gentiobioside]", "values": [
      {"measurement": "OC43 Inhibition rate", "result": -0.3, "unit": "%"}
    ]},
    {"smiles": "CC(=O)O[C@@H]1CC[C@@]2(C)[C@@H](CC[C@]3(C)[C@@H]2[C@H](O)C=C2[C@@H]4[C@@H](C)[C@H](C)CC[C@]4(C)CC[C@]23C)[C@@]1(C)C(=O)O", "note": "[3-O-Acetyl-11-hydroxy-beta-boswellic acid]", "values": [
      {"measurement": "OC43 Inhibition rate", "result": 15.2, "unit": "%"}
    ]},
    {"smiles": "O=C(O)CCCCCCCCCCCO", "note": "[12-Hydroxydodecanoic acid]", "values": [
      {"measurement": "OC43 Inhibition rate", "result": -1, "unit": "%"}
    ]},
    {"smiles": "CC(O)CC(=O)O", "note": "(stereo not drawn) [3-Hydroxybutyric acid]", "values": [
      {"measurement": "OC43 Inhibition rate", "result": 9.7, "unit": "%"}
    ]},
    {"smiles": "CCCCC/C=C/C(=O)O", "note": "[(E)-Oct-2-enoic acid]", "values": [
      {"measurement": "OC43 Inhibition rate", "result": 3.7, "unit": "%"}
    ]},
    {"smiles": "CC(=O)O[C@@H](C[C@@H](C)C1=C2C[C@H](O)[C@H]3[C@@]4(C)CCC(=O)C(C)(C)[C@@H]4CC[C@]3(C)[C@@]2(C)CC1=O)[C@H]1OC1(C)C", "note": "[Alisol C 23-acetate]", "values": [
      {"measurement": "OC43 Inhibition rate", "result": 4, "unit": "%"}
    ]},
    {"smiles": "O=C1C[C@@](O)(C(=O)O)[C@@H](C(=O)O)O1", "note": "[(-)-Hydroxycitric acid lactone]", "values": [
      {"measurement": "OC43 Inhibition rate", "result": -0.6, "unit": "%"}
    ]},
    {"smiles": "COc1cc2ccc(=O)oc2c(O[C@@H]2O[C@H](CO)[C@@H](O)[C@H](O)[C@H]2O)c1O", "note": "[Fraxin]", "values": [
      {"measurement": "OC43 Inhibition rate", "result": 3.6, "unit": "%"}
    ]},
    {"smiles": "CC(C)(O[C@@H]1O[C@H](CO)[C@@H](O)[C@H](O)[C@H]1O)[C@H]1Cc2cc3ccc(=O)oc3cc2O1", "note": "[Nodakenin]", "values": [
      {"measurement": "OC43 Inhibition rate", "result": 0.2, "unit": "%"}
    ]},
    {"smiles": "C=C1C(=O)O[C@@H]2/C=C(/C)C[C@H]3C=C(C[C@H](OC(=O)/C(C)=C\\C)[C@@H]12)C(=O)O3", "note": "[Scabertopin]", "values": [
      {"measurement": "OC43 Inhibition rate", "result": -0.9, "unit": "%"}
    ]},
    {"smiles": "O=C1CCCc2c(O)cccc21", "note": "[5-Hydroxy-1-tetralone]", "values": [
      {"measurement": "OC43 Inhibition rate", "result": 0, "unit": "%"}
    ]},
    {"smiles": "CC[C@H]1OC(=O)C[C@@H](O)[C@H](C)[C@@H](O[C@@H]2O[C@H](C)[C@@H](O[C@H]3C[C@@](C)(O)[C@@H](O)[C@H](C)O3)[C@H](N(C)C)[C@H]2O)[C@@H](CC=O)C[C@@H](C)C(=O)/C=C/C(C)=C/[C@@H]1CO[C@@H]1O[C@H](C)[C@@H](O)[C@@H](OC)[C@H]1OC", "note": "[Tylosin]", "values": [
      {"measurement": "OC43 Inhibition rate", "setting": "OC43 Inhibition rate, 24 h", "result": 24.7, "unit": "%"}
    ]},
    {"smiles": "CC1=CC[C@@H](C(C)(C)O)CC1", "note": "[(-)-α-Terpineol]", "values": [
      {"measurement": "OC43 Inhibition rate", "setting": "OC43 Inhibition rate, 24 h", "result": -0.1, "unit": "%"}
    ]}
  ]
}
